Literature values, collected in patent US12458645B2, “Pediatric powder for oral suspension containing antiviral agent and method for the preparation thereof” (PHARMATHEN S.A., priority 2014, dated 2025).

Conditions: in words

solubility in water: poorly water soluble
Compound: Nc1nc2c(ncn2COCCO)c(=O)[nH]1 [acyclovir, Acyclovir]
